Test results from PMC7215500.
No constants are given. Whether binding was seen depends on the method and setting. Binding seen in cells or lysates may run through a third protein. A result given as binding can be weak or reduced; the word gives no strength. Tags and fused reporters may be left off the sequences shown.

What was measured:
[1] = molecular target: Tomato leaf curl Guangdong virus (ToLCGdV) C4, split-YFP fusion for BiFC (Tomato leaf curl Guangdong virus); test: split reporter; BiFC with split YFP; C4-nYFP with BAM1-cYFP, or C4-cYFP with BAM1-nYFP, co-infiltrated into N. benthamiana leaves; confocal microscopy at 3 dpi
[2] = molecular target: Tomato leaf curl Guangdong virus (ToLCGdV) C4 with Myc tag (Tomato leaf curl Guangdong virus); test: co-IP; AC4-6xMyc and BAM1-GFP co-infiltrated into N. benthamiana leaves, collected at 3 dpi; precipitated with anti-c-Myc agarose affinity gel; blots with anti-GFP and anti-Myc

B1: BARELY ANY MERISTEM 1 (BAM1), split-YFP fusion for BiFC (receptor, UniProt O49545 20-1003)
chain: SRPISEFRALLSLKTSLTGAGDDKNSPLSSWKVSTSFCTWIGVTCDVSRRHVTSLDLSGLNLSGTLSPDVSHLRLLQNLSLAENLISGPIPPEISSLSGLRHLNLSNNVFNGSFPDEISSGLVNLRVLDVYNNNLTGDLPVSVTNLTQLRHLHLGGNYFAGKIPPSYGSWPVIEYLAVSGNELVGKIPPEIGNLTTLRELYIGYYNAFEDGLPPEIGNLSELVRFDGANCGLTGEIPPEIGKLQKLDTLFLQVNVFSGPLTWELGTLSSLKSMDLSNNMFTGEIPASFAELKNLTLLNLFRNKLHGEIPEFIGDLPELEVLQLWENNFTGSIPQKLGENGKLNLVDLSSNKLTGTLPPNMCSGNKLETLITLGNFLFGSIPDSLGKCESLTRIRMGENFLNGSIPKGLFGLPKLTQVELQDNYLSGELPVAGGVSVNLGQISLSNNQLSGPLPPAIGNFTGVQKLLLDGNKFQGPIPSEVGKLQQLSKIDFSHNLFSGRIAPEISRCKLLTFVDLSRNELSGEIPNEITAMKILNYLNLSRNHLVGSIPGSISSMQSLTSLDFSYNNLSGLVPGTGQFSYFNYTSFLGNPDLCGPYLGPCKDGVAKGGHQSHSKGPLSASMKLLLVLGLLVCSIAFAVVAIIKARSLKKASESRAWRLTAFQRLDFTCDDVLDSLKEDNIIGKGGAGIVYKGVMPNGDLVAVKRLAAMSRGSSHDHGFNAEIQTLGRIRHRHIVRLLGFCSNHETNLLVYEYMPNGSLGEVLHGKKGGHLHWDTRYKIALEAAKGLCYLHHDCSPLIVHRDVKSNNILLDSNFEAHVADFGLAKFLQDSGTSECMSAIAGSYGYIAPEYAYTLKVDEKSDVYSFGVVLLELVTGRKPVGEFGDGVDIVQWVRKMTDSNKDSVLKVLDPRLSSIPIHEVTHVFYVAMLCVEEQAVERPTMREVVQILTEIPKLPPSKDQPMTESAPESELSPKSGVQSPPDLLNL
binding [1]: binds

B2: BARELY ANY MERISTEM 1 (BAM1) fused to GFP (receptor, UniProt O49545 20-1003)
chain: SRPISEFRALLSLKTSLTGAGDDKNSPLSSWKVSTSFCTWIGVTCDVSRRHVTSLDLSGLNLSGTLSPDVSHLRLLQNLSLAENLISGPIPPEISSLSGLRHLNLSNNVFNGSFPDEISSGLVNLRVLDVYNNNLTGDLPVSVTNLTQLRHLHLGGNYFAGKIPPSYGSWPVIEYLAVSGNELVGKIPPEIGNLTTLRELYIGYYNAFEDGLPPEIGNLSELVRFDGANCGLTGEIPPEIGKLQKLDTLFLQVNVFSGPLTWELGTLSSLKSMDLSNNMFTGEIPASFAELKNLTLLNLFRNKLHGEIPEFIGDLPELEVLQLWENNFTGSIPQKLGENGKLNLVDLSSNKLTGTLPPNMCSGNKLETLITLGNFLFGSIPDSLGKCESLTRIRMGENFLNGSIPKGLFGLPKLTQVELQDNYLSGELPVAGGVSVNLGQISLSNNQLSGPLPPAIGNFTGVQKLLLDGNKFQGPIPSEVGKLQQLSKIDFSHNLFSGRIAPEISRCKLLTFVDLSRNELSGEIPNEITAMKILNYLNLSRNHLVGSIPGSISSMQSLTSLDFSYNNLSGLVPGTGQFSYFNYTSFLGNPDLCGPYLGPCKDGVAKGGHQSHSKGPLSASMKLLLVLGLLVCSIAFAVVAIIKARSLKKASESRAWRLTAFQRLDFTCDDVLDSLKEDNIIGKGGAGIVYKGVMPNGDLVAVKRLAAMSRGSSHDHGFNAEIQTLGRIRHRHIVRLLGFCSNHETNLLVYEYMPNGSLGEVLHGKKGGHLHWDTRYKIALEAAKGLCYLHHDCSPLIVHRDVKSNNILLDSNFEAHVADFGLAKFLQDSGTSECMSAIAGSYGYIAPEYAYTLKVDEKSDVYSFGVVLLELVTGRKPVGEFGDGVDIVQWVRKMTDSNKDSVLKVLDPRLSSIPIHEVTHVFYVAMLCVEEQAVERPTMREVVQILTEIPKLPPSKDQPMTESAPESELSPKSGVQSPPDLLNL
binding [2]: binds
